Data source: PubChem BioAssay AID1053208 (Peter MacCallum Cancer Centre, 2014)

Purpose: 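Synthetic lethal interactions between gene loss and doxorubicin in osteosarcoma cells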 (primary screen)
System: mouse osteosarcoma cells, early-passage culture from an engineered mouse model of fibroblastic bone tumour
Reagent: siRNA pool against mouse genes, 40 nM
Timing: about 120 h (48 h before drug, then 72 h with drug)
Treatment: doxorubicin 100 nM for 72 h, roughly 30-40% inhibitory dose
Measured: 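Viability read as ATP luminescence after 72 h of 100 nM doxorubicin or none, duplicate wells averaged, scaled to non-targeting siRNA, then expressed as robust z-scores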
Reading the numbers: viability z-score with doxorubicin and doxorubicin viability vs non-targeting: higher = more viable cells under doxorubicin; viability z-score without drug: higher = more viable cells with knock-down alone; z-score of drug to no-drug ratio: higher = less drug sensitisation by knock-down
Rule for the call: 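Called active if knock-down leaves viability unchanged without drug (z within -2 to 2) but lowers it with doxorubicin (z at or under -2)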
Here is an unselected part of about 17,000 reagents. Of all reagents, 788 (4.7%) got an active call. 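Calls rest on z-score classes alone; an extra cut-off of viability at most 70% of control was not applied to them.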 Entries without a mark were called inactive. Some reagents were tested in more than one well and are listed for each.

Target gene | PubChem SID | combined z-score class | viability z-score with doxorubicin | viability z-score without drug | z-score of drug to no-drug ratio | doxorubicin viability vs non-targeting
Or52e7 (olfactory receptor family 52 subfamily E member 7) | SID152331995 | no change with or without drug | -1.01 | -1.18 | -0.11 | 0.85
Isl1 (ISL1 transcription factor, LIM/homeodomain) | SID152274880 | no change with or without drug | 0.45 | 0.17 | 0.45 | 0.98
Get1 (guided entry of tail-anchored proteins factor 1) | SID152322844 | low cell count with doxorubicin only (active) | -2.47 | -1.69 | -1.46 | 0.72
Dkk1 (dickkopf WNT signaling pathway inhibitor 1) | SID152259838 | no change with or without drug | 0.9 | 0.84 | 0.45 | 1.02
Irx3 (Iroquois related homeobox 3) | SID152292667 | no change with or without drug | -1.8 | 0.17 | -1.91 | 0.78
Sclt1 (sodium channel and clathrin linker 1) | SID152273855 | no change with or without drug | 0.9 | -0.17 | 1.24 | 1.02

Next part, starting with the last 2 of the part before.
Target gene | PubChem SID | combined z-score class | viability z-score with doxorubicin | viability z-score without drug | z-score of drug to no-drug ratio | doxorubicin viability vs non-targeting
Irx3 (Iroquois related homeobox 3) | SID152292667 | no change with or without drug | -1.8 | 0.17 | -1.91 | 0.78
Sclt1 (sodium channel and clathrin linker 1) | SID152273855 | no change with or without drug | 0.9 | -0.17 | 1.24 | 1.02
Sgca (sarcoglycan, alpha (dystrophin-associated glycoprotein)) | SID152260272 | no change with or without drug | 0.34 | -0.17 | 0.56 | 0.97
Cdk19 (cyclin dependent kinase 19) | SID152290670 | no change with or without drug | -0.22 | 0.84 | -0.67 | 0.92
Cdk19 (cyclin dependent kinase 19) | SID152290670 | no change with or without drug | -0.22 | 0.17 | -0.22 | 0.92
Atp10d (ATPase, class V, type 10D) | SID152287807 | no change with or without drug | 0.79 | -1.18 | 1.91 | 1.01
Uap1 (UDP-N-acetylglucosamine pyrophosphorylase 1) | SID152314802 | high cell count with doxorubicin only | 2.14 | 1.01 | 1.57 | 1.13
Dgcr8 (DGCR8, microprocessor complex subunit) | SID152294633 | no change with or without drug | 0.79 | 0.17 | 0.79 | 1.01
Mcts2 (malignant T cell amplified sequence 2) | SID152283630 | no change with or without drug | -1.8 | 1.52 | -2.59 | 0.78
Tas1r2 (taste receptor, type 1, member 2) | SID152281235 | no change with or without drug | -1.57 | 0.17 | -1.69 | 0.8
Kctd19 (potassium channel tetramerisation domain containing 19) | SID152333326 | no change with or without drug | -0.56 | 0.17 | -0.56 | 0.89
Smad3 (SMAD family member 3) | SID152310689 | no change with or without drug | 0 | -0.51 | 0.45 | 0.94
Ly6g6d (lymphocyte antigen 6 family member G6D) | SID152281554 | no change with or without drug | 0 | -0.17 | 0.22 | 0.94
Ly6g6d (lymphocyte antigen 6 family member G6D) | SID152317128 | no change with or without drug | 1.35 | 1.52 | 0.45 | 1.06
Pot1a (protection of telomeres 1A) | SID152268320 | no change with or without drug | 1.24 | 1.52 | 0.34 | 1.05
Senp5 (SUMO/sentrin specific peptidase 5) | SID152312114 | no change with or without drug | 0.34 | -0.17 | 0.56 | 0.97
